The other results are listed elsewhere or left out.
compound: COc1ccc(Cn2ccc3cc(C)c(C(=O)NO)cc32)cc1; experiment: dose-dependent thermal stabilisation call (2D-TPP, DLPTP, 10% FDR) (binary (1 = stabilised)); higher = stabilised by the compound; details: system: HL-60 intact cells; concentration range 0.04-10 µM
Experimental: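 2D thermal proteome profiling in intact HL-60 cells treated with BRD-3811 (0, 0.04, 0.29, 2, 10 uM) for 90 min at 37 C, then heated 3 min at one of 12 temperatures (42-63.9 C). Soluble protein was quantified by TMT10 MS. The value is the DLPTP call of the paper: dose-dependent thermal stabilisation over all temperatures at 10% FDR (F-test of a dose-response against a flat model); one experiment, one call per tested protein.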

The chains behind the UniProt entries cited, without tags or fusion partners. Where a name states a change or a piece, a line headed by the entry shows the natural chain unless it says otherwise.
UniProt Q13472: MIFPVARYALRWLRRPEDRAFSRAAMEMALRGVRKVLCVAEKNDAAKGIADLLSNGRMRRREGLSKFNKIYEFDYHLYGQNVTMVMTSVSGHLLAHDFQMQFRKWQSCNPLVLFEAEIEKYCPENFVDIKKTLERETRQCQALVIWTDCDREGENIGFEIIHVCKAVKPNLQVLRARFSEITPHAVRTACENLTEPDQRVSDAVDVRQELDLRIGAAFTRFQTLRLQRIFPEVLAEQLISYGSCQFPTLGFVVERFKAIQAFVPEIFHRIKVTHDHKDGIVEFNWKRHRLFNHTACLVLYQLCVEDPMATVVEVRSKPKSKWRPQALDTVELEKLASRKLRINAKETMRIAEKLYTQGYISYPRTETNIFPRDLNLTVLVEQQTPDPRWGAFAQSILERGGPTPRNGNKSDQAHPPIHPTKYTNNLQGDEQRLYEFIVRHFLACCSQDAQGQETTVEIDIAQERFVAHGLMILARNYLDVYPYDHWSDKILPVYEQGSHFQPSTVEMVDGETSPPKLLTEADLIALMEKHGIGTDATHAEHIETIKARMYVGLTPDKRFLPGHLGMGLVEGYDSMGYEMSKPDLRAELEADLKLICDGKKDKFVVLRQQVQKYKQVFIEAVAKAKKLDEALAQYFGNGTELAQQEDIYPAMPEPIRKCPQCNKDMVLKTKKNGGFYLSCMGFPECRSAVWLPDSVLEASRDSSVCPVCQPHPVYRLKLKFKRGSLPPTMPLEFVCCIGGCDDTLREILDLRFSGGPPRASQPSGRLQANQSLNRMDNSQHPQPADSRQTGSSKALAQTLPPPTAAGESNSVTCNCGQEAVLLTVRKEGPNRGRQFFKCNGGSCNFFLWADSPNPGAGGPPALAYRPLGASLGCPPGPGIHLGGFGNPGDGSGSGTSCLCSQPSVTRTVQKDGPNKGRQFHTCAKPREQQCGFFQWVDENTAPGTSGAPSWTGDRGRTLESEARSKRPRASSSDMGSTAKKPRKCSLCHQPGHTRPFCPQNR
UniProt O75663: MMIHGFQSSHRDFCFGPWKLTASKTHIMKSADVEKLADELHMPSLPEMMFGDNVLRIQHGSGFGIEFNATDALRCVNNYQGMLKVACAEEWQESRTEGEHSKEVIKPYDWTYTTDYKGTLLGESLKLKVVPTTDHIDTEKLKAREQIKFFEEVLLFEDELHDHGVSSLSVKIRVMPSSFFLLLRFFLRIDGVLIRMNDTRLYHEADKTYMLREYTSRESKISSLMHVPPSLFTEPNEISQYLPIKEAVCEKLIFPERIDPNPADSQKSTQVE
UniProt Q9P016: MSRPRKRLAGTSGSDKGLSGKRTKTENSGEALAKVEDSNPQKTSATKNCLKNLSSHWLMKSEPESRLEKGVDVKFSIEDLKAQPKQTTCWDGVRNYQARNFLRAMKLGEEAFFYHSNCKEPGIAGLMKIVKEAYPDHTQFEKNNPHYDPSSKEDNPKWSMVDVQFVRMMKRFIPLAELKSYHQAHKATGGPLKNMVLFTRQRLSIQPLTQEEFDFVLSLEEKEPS
UniProt Q9BRZ2: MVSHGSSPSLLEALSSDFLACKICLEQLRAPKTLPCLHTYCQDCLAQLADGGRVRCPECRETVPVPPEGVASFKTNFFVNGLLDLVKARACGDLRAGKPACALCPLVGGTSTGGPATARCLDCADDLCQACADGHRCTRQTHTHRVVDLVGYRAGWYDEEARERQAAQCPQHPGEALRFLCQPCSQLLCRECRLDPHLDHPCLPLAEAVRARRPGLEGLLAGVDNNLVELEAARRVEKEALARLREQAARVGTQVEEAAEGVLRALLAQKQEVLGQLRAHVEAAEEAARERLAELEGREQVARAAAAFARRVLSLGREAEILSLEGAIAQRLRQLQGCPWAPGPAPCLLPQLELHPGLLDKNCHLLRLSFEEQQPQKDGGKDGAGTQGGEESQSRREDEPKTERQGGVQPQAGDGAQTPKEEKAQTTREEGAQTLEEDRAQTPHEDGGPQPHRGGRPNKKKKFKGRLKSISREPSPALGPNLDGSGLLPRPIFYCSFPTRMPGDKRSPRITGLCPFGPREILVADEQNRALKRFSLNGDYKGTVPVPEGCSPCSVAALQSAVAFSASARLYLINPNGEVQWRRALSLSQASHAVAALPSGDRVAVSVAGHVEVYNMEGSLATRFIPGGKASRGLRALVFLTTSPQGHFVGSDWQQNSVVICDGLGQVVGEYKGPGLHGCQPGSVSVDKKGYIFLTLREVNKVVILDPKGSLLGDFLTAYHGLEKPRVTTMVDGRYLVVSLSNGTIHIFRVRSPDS
UniProt Q13769: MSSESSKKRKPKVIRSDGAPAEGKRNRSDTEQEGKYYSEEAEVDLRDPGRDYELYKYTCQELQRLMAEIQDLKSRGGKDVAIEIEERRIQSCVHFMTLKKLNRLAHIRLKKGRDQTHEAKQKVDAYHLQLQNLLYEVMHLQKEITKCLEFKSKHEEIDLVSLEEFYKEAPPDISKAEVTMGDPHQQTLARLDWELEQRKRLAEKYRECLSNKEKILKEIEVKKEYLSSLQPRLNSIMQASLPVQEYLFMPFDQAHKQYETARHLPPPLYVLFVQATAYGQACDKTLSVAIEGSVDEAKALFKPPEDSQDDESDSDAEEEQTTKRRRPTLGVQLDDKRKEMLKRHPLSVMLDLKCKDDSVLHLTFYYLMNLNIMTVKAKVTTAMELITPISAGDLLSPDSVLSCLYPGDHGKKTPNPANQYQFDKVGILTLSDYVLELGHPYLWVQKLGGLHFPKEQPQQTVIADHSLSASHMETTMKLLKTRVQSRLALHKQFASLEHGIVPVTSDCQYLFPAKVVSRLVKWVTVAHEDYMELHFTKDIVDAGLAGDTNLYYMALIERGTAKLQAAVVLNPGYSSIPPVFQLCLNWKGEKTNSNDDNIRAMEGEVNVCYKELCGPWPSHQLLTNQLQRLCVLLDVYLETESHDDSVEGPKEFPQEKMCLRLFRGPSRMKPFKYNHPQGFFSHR
UniProt P82094: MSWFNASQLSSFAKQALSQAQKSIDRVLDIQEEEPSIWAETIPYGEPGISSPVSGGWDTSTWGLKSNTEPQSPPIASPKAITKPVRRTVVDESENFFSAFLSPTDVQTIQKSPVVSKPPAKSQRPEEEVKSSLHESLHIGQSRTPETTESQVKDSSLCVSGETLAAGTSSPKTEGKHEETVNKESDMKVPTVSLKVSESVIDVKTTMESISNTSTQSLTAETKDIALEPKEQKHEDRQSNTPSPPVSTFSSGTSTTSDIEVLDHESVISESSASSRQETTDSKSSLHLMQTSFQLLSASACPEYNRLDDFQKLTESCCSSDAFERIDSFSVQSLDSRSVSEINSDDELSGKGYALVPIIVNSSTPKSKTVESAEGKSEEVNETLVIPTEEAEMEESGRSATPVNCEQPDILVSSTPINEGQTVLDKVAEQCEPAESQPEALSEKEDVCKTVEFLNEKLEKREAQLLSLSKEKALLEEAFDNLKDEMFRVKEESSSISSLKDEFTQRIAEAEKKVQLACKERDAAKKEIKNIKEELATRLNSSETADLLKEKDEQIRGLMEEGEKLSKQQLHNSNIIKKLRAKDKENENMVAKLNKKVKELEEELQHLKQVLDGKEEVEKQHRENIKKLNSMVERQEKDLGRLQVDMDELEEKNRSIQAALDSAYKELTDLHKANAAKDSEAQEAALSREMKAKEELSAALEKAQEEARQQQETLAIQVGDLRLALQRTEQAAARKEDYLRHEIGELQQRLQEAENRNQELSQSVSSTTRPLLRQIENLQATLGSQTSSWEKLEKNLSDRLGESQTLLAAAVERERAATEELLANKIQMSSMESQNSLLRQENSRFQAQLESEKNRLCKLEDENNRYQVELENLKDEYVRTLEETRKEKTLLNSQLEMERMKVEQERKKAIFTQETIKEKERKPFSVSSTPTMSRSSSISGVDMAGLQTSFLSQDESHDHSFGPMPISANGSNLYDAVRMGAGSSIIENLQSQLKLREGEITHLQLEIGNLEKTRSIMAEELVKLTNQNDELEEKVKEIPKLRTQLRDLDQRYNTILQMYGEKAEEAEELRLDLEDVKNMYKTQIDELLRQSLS
UniProt Q9Y5L0: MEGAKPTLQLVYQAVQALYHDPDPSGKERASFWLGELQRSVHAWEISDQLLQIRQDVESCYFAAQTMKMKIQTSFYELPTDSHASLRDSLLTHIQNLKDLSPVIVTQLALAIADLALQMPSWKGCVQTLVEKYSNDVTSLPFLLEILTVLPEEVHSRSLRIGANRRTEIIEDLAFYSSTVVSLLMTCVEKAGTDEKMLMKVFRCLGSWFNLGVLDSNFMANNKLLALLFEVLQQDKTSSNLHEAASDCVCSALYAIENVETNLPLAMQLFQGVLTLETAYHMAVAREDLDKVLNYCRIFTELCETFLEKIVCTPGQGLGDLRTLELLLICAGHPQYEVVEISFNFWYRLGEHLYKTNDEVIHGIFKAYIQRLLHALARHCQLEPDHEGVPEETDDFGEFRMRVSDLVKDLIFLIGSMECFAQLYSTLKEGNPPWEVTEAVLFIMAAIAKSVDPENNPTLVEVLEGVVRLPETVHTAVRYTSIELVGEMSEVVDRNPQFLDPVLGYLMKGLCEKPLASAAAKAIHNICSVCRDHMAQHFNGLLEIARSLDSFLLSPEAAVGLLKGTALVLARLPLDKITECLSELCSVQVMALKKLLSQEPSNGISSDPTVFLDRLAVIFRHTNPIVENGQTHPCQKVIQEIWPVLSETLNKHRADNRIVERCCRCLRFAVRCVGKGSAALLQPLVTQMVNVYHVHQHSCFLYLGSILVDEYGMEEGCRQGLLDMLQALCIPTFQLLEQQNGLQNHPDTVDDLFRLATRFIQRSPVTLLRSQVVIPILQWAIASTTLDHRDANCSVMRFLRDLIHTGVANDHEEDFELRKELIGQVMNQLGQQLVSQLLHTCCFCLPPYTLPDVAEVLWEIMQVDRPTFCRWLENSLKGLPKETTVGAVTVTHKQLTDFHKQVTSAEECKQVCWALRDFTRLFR
UniProt Q9HD45: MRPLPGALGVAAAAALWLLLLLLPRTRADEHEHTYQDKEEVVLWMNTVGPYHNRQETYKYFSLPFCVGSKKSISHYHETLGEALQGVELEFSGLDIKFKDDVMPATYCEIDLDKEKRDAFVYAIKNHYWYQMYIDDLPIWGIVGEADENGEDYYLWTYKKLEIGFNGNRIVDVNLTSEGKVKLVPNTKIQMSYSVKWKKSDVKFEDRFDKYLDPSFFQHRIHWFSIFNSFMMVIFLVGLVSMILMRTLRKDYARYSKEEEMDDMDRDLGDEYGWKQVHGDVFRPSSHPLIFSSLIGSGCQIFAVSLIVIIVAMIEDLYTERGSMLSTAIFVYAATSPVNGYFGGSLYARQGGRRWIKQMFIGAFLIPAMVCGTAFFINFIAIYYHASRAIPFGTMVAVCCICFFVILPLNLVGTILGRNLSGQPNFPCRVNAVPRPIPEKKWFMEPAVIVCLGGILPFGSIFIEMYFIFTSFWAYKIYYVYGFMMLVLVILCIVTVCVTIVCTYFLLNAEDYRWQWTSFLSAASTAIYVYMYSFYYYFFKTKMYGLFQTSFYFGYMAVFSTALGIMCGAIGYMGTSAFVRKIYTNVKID
UniProt Q92973: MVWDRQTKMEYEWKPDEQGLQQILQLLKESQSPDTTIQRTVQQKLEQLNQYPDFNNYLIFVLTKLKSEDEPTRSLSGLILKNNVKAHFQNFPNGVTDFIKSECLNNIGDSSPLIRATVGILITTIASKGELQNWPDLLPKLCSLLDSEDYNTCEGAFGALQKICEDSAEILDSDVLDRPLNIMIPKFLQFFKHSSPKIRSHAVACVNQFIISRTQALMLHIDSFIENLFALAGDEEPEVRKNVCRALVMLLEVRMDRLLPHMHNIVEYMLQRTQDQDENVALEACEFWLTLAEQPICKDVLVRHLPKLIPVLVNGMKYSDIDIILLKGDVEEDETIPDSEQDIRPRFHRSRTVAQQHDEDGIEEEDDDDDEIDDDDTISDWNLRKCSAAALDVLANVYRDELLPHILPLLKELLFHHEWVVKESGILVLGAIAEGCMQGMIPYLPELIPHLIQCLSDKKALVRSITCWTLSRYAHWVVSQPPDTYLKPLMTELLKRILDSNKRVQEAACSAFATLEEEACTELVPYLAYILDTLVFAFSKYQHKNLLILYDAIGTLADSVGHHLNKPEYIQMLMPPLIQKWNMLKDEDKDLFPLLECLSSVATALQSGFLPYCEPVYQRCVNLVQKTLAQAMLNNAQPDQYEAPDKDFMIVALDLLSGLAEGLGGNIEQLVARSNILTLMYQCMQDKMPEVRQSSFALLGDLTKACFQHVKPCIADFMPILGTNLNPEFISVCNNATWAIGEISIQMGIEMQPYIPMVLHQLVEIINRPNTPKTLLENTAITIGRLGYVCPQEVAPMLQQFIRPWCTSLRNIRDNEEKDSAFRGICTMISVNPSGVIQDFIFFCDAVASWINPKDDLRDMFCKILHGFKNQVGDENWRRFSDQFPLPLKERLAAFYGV

Target	dose-dependent thermal stabilisation call
TRNT1 (UniProt Q96Q11)	inactive: 0
TMUB2 (UniProt Q71RG4)	inactive: 0
TSC22D2 (UniProt O75157)	inactive: 0
TRIM14 (UniProt Q14142)	inactive: 0
TOP3A (UniProt Q13472)	inactive: 0
TIMM17B (UniProt O60830)	inactive: 0
TIPRL (UniProt O75663)	inactive: 0
TOR1A (UniProt O14656)	inactive: 0
TMEM205 (UniProt Q6UW68)	inactive: 0
THYN1 (UniProt Q9P016)	inactive: 0
TMED4 (UniProt Q7Z7H5)	inactive: 0
TRIM56 (UniProt Q9BRZ2)	inactive: 0
TMEM57 (UniProt Q8N5G2)	inactive: 0
TRUB1 (UniProt Q8WWH5)	inactive: 0
TPCN1 (UniProt Q9ULQ1)	inactive: 0
TMSL3	inactive: 0
TPD52L2 (UniProt O43399)	inactive: 0
TRAPPC10 (UniProt P48553)	inactive: 0
TMEM168 (UniProt Q9H0V1)	inactive: 0
THOC5 (UniProt Q13769)	inactive: 0
TRIM13 (UniProt O60858)	inactive: 0
TMF1 (UniProt P82094)	inactive: 0
TNPO3 (UniProt Q9Y5L0)	inactive: 0
TM9SF3 (UniProt Q9HD45)	inactive: 0
TNPO1 (UniProt Q92973)	inactive: 0
TLN1 (UniProt Q9Y490)	inactive: 0
TRIM28 (UniProt Q13263)	inactive: 0

Some of the entries above, reformatted:

| Target | dose-dependent thermal stabilisation call |
| --- | --- |
| TOP3A (UniProt Q13472) | inactive: 0 |
| TIMM17B (UniProt O60830) | inactive: 0 |
| TIPRL (UniProt O75663) | inactive: 0 |
| TOR1A (UniProt O14656) | inactive: 0 |
| TMEM205 (UniProt Q6UW68) | inactive: 0 |
| THYN1 (UniProt Q9P016) | inactive: 0 |
| TMED4 (UniProt Q7Z7H5) | inactive: 0 |
| TRIM56 (UniProt Q9BRZ2) | inactive: 0 |

— the supplement of paper PMC7666118
